# Test results published in PubChem BioAssay AID1671190 (National Center for Advancing Translational Sciences (NCATS), 2021).
# Sequences of proteins named here, by UniProt entry; tags and fusion partners are left off. A change or cut given only in a name is not applied to a line headed by its entry.
# UniProt P18054: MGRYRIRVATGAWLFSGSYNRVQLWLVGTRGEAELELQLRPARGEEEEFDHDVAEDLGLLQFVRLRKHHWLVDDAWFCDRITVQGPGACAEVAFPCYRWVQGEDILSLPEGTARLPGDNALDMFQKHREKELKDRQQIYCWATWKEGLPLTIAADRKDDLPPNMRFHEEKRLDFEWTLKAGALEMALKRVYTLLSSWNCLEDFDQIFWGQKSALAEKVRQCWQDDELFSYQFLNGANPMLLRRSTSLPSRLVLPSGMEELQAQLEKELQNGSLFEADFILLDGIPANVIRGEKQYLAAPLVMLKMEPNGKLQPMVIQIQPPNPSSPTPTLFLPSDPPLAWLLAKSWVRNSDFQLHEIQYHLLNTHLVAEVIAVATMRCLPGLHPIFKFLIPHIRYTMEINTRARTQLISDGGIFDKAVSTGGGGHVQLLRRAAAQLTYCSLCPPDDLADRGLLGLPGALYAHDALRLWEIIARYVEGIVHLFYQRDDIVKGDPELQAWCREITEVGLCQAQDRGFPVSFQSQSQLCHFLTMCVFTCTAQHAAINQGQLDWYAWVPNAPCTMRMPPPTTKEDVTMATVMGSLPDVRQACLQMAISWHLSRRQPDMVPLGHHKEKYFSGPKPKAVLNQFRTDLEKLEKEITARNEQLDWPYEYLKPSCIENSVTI
# Hit rate of the full screen: of about 580,000 compounds, about 6,100 (1.1%) were called active. This list was built around the results that the source calls inconclusive (neither active nor inactive); the mix of calls is not that of the screen. Calls follow the shape of the dose curve; as a rule, active = well fitted inhibition curve with a large enough effect; inconclusive = small, poorly fitted or top-dose-only effect, or another doubt; inactive = no such curve, though single readings can be large or run the other way. Where the call is inconclusive, the potency comes from a doubtful curve fit.
# Biological target: Polyunsaturated fatty acid lipoxygenase ALOX12 (Homo sapiens) (UniProt P18054)
# Experiment: Primary qHTS assay for inhibitors of human arachidonate 12S-lipoxygenase (ALOX12): Round 2
# Conditions: purified 12hLO, xylenol orange hydroperoxide absorbance; activity change, negative = inhibition: at 108 µM (top of the series) unless noted
# Procedure, shortened: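 Hydroperoxide product was detected by ferrous iron/xylenol orange as the 573 to 405 nm absorbance ratio. Arachidonic acid at 40 uM (final) was turned over for 30 min at room temperature by 150 nM human 12hLO, pH 7.0 Hepes buffer, after 15 min compound preincubation.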
# % is scaled to controls: 0 for no effect and ±100 for the full control effect; potency is read from the fitted curve at half-maximal effect.
SMILES,Potency,"activity change, negative = inhibition"
CCCCCCCc1ccc(-c2ccc(O)cc2)nc1,"inconclusive: 56.2 µM [inhibitor, partial curve, poor fit]",–
Cc1noc(C)c1NC(=O)N(C)C[C@H]1Oc2ccc(NC(=O)C3CCCCC3)cc2C(=O)N([C@H](C)CO)C[C@@H]1C,"inconclusive: 2.82 µM [inhibitor, full curve]",–
CC(C(=O)Nc1ccc2c(c1)OCCO2)N1Cc2ccccc2C1=O (stereo not given),–,inactive: -7.74%
CC(C)(C)OC(=O)C(C)(C)O/N=C(\C(=O)O)c1csc(N)n1,"inconclusive: 31.6 µM [inhibitor, partial curve, poor fit]",–
Cc1ccc(Cl)cc1NC1=C/C(=N\S(=O)(=O)c2cccs2)c2ccccc2C1=O,–,inactive: -11.1%
Cc1cc2c(C)cc(=O)[nH]c2cc1NC(=O)CCl,"inconclusive: 39.8 µM [inhibitor, partial curve, poor fit]",–
COC(=O)c1cc2c(c3c4cc(F)ccc4n(S(=O)(=O)c4ccccc4)c13)C(=O)N(Cc1ccc(C(F)(F)F)cc1)C2,"inconclusive: 44.7 µM [inhibitor, partial curve, poor fit]",–
O=C(On1c(-c2ccccc2)nc2ccccc2c1=O)c1ccco1,"inconclusive: 14.1 µM [inhibitor, full curve]",–
Clc1ccc(-c2nnc(COc3ncnc4sccc34)o2)cc1,"inconclusive: 112 µM [inhibitor, partial curve, poor fit]",–
O=C(c1cccc(F)c1)N1CCN(Cc2ccco2)CC1,"inconclusive: 0.398 µM [inhibitor, full curve, poor fit]",–
Clc1ccc(C2=CSC3=Nc4cccc5cccc(c45)N23)cc1,"inconclusive: 56.2 µM [inhibitor, partial curve, poor fit]",–
COc1ccc(-c2noc([C@@H]3CCCN3C(=O)c3ccc(C#N)cc3)n2)cc1OC,active: 25.1 µM,–
O=C(COc1ccccc1)Nc1ccc(Cl)c(-c2nc3ccccc3o2)c1,–,inactive: -3.84%
O=[N+]([O-])c1cccc(S(=O)(=O)N2CN(c3ccc(Br)cc3)c3nc4ccccc4nc32)c1,"inconclusive: 79.4 µM [inhibitor, partial curve, poor fit]",–
Cc1cccc(C(=O)OCc2cnc(Cl)s2)c1,"inconclusive: 100 µM [inhibitor, single point]",–
O=C(C1CCCN(Cc2ccccc2Br)C1)N1CCCCC1 (stereo not given),"inconclusive: 79.4 µM [inhibitor, partial curve, poor fit]",–
CCNC(=O)N[C@H]1[C@H](O)[C@@H](N2CCN(C(C)=O)CC2)[C@@H]2OC[C@H]1O2,"inconclusive: 141 µM [inhibitor, partial curve, poor fit]",–
COCCCNC(=S)N/N=C/c1ccc(OC)cc1,"inconclusive: 14.1 µM [inhibitor, full curve, poor fit]",–
c1ccc(CCN=C2CCCc3c2[nH]c2ccccc32)cc1,"inconclusive: 112 µM [inhibitor, partial curve, poor fit]",–
O=C(Nc1nc(-c2ccccn2)cs1)C1CC1,–,inactive: 21.5%
Cc1nnc(SCC(=O)NCc2ccco2)[nH]c1=O,–,inactive: -18.6%
Cc1cccc(N2CCN(c3ccc4cc(S(=O)(=O)N5CCC(C)CC5)ccc4n3)CC2)c1C,active: 50.1 µM,–

SMILES,Potency,"activity change, negative = inhibition"
Cn1c(SCc2nc3ccccc3[nH]2)nnc1-c1cccs1,–,inactive: 7.74%
O=C(Cn1nc(C(=O)O)c2ccccc2c1=O)Nc1cccc(Cl)c1,"inconclusive: 44.7 µM [inhibitor, partial curve, poor fit]",–
O=C(CSc1nc(O)c(-c2ccccc2)c(=O)[nH]1)N1CCOCC1,–,inactive: -1.09%
O=C(CNc1cccc2ccccc12)N/N=C/c1ccc(C(=O)O)cc1,–,inactive: 2.99%
CCOC(=O)C(=O)Nc1nnc(COc2ccccc2)s1,"inconclusive: 100 µM [inhibitor, single point]",–
C=CC[C@@H](CC(=O)N[C@H](CO)Cc1ccccc1)C(=O)N[C@H](COC(=O)[C@H](CC=C)CC(=O)OC(C)(C)C)Cc1c[nH]c2ccccc12,–,inactive: -2.83%
COc1ccc(C(=O)Nc2ccc(S(=O)(=O)Nc3onc(C)c3C)cc2)cc1OC,"inconclusive: 28.2 µM [inhibitor, single point]",–
C[S+](=O)([O-])N1CC2(CCCN(CC3CCCCC3)C2)Cc2ccccc21 (stereo not given),"inconclusive: 70.8 µM [inhibitor, partial curve]",–
Cc1ccc(C(=O)Nc2ccccc2N2CCCC2)cc1,"inconclusive: 44.7 µM [inhibitor, partial curve, poor fit]",–
Cc1nn(CCc2nc(-c3ccco3)cs2)c2[nH]c(=O)cc(C(F)(F)F)c12,active: 7.94 µM,–
CCOC(=O)c1c(C)n(-c2ccc(C)cc2)c2ccc(OCC(O)CNCCCO)cc12 (stereo not given),"inconclusive: 44.7 µM [inhibitor, partial curve, poor fit]",–
COc1ccc(C2(SCC(N)C(=O)O)c3ccccc3-c3ccccc32)cc1 (stereo not given),"inconclusive: 50.1 µM [inhibitor, partial curve, poor fit]",–
CN(C)C(=O)C1C2NC(=S)N(c3ccc(Cl)cc3)C1(C)Oc1ccc(Cl)cc12 (stereo not given),"inconclusive: 50.1 µM [inhibitor, partial curve, poor fit]",–
Nc1ccc2nc(CO)[nH]c2c1,"inconclusive: 14.1 µM [inhibitor, full curve]",–
O=c1c2c(nc3cc[nH]n13)CCN(S(=O)(=O)c1ccc3c(c1)CCC3)C2,–,inactive: 25.6%
COc1ccc(NC(=S)Nc2ccccc2SC)c(OC)c1,"inconclusive: 50.1 µM [inhibitor, partial curve, poor fit]",–
CCOC(=O)C(=O)N(C)c1c(CC)nc2c(OCc3ccc(OC)cc3)cccn12,"inconclusive: 28.2 µM [inhibitor, partial curve]",–
CCC(=O)N1CCc2cc(Br)cc(S(=O)(=O)N3CCCC(C(=O)NCc4ccc(C)cc4)C3)c21 (stereo not given),–,inactive: -21.2%
Cc1ccc(-n2c3nc(=O)n(C)c(=O)c-3cc3ccccc32)c(C)c1,"inconclusive: 50.1 µM [inhibitor, partial curve, poor fit]",–
COc1ccc(C(=O)c2sc(Nc3ccccc3OC)nc2N)cc1,–,inactive: -32.8%
CC(C)COc1ccc(C(=O)Nc2ncn[nH]2)cc1,–,inactive: 0%
CC(C)CNc1oc(-c2ccco2)nc1S(=O)(=O)c1ccc2c(c1)OCCO2,"inconclusive: 17.8 µM [inhibitor, full curve, poor fit]",–

SMILES,Potency,"activity change, negative = inhibition"
O=C(CNc1cccc(OC(F)(F)F)c1)N1CCNC1=O,–,inactive: 32.2%
CCOC(=O)C1=CN(Cc2ccco2)S(=O)(=O)NC1c1ccc(C(F)(F)F)cc1 (stereo not given),"inconclusive: 39.8 µM [inhibitor, partial curve, poor fit]",–
Clc1ccccc1Nc1nc(NCc2ccccc2)nc2ccsc12,"inconclusive: 1.26 µM [inhibitor, full curve]",–
CC(=O)Nc1ccc(NC(=O)CC2Nc3cccc4cccc(c34)NC2=O)cc1 (stereo not given),–,inactive: -7.15%
O=C(Nc1ccccc1O)c1ccc(NS(=O)(=O)c2cccc3cccnc23)cc1,–,inactive: 1.67%
C[C@H](CO)N1C[C@H](C)[C@@H](CN(C)S(=O)(=O)c2cccs2)Oc2c(NC(=O)c3ccncc3)cccc2C1=O,"inconclusive: 50.1 µM [inhibitor, partial curve, poor fit]",–
CCCNC(=O)Cn1c(=O)/c(=C/c2ccc(-c3ccc([N+](=O)[O-])cc3)o2)s/c1=C\C(=O)C(C)(C)C,"inconclusive: 56.2 µM [inhibitor, partial curve, poor fit]",–
O=C(N[C@H]1C/C=C\C[C@@H](CC(=O)N(CCO)Cc2ccccc2)C(=O)NC[C@H](c2ccccc2)OC1=O)OCC1c2ccccc2-c2ccccc21,"inconclusive: 39.8 µM [inhibitor, partial curve, poor fit]",–
CCCC(C)NC(=O)CSc1nnc(Nc2ccc(CC)cc2)s1 (stereo not given),–,inactive: -13.4%
Cc1n[nH]c(C)c1C(=O)CC1(O)C(=O)N(CCc2ccccc2)c2ccc(Br)cc21 (stereo not given),"inconclusive: 158 µM [inhibitor, partial curve, poor fit]",–
CCOC(=O)CNNC(=O)Nc1ccc(Cl)c(Cl)c1,–,inactive: -13.8%
O=C(NNC(=S)Nc1ccccc1)c1ccc(-c2ccccc2)cc1,"inconclusive: 112 µM [inhibitor, partial curve, poor fit]",–
Cc1ccc2c(=O)cc(C(=O)Nc3c(C)cccc3C)oc2c1,"inconclusive: 44.7 µM [inhibitor, partial curve, poor fit]",–
O=C(NC1CC1)[C@H]1O[C@H](CCN2CCOCC2)CC[C@@H]1O,"inconclusive: 79.4 µM [inhibitor, partial curve, poor fit]",–
CCn1c(=O)n(CC)c2cc(N3CCCC3)c(NC(=O)c3ccc(C)cc3)cc21,"inconclusive: 50.1 µM [inhibitor, partial curve, poor fit]",–
Cc1ccc(CN(CCc2ccccc2)C(=O)c2cccc(C#N)c2)s1,–,inactive: 0.189%
Cc1cc2c(cc1S(=O)(=O)NCc1ccc(F)cc1)OCCN2C,"inconclusive: 79.4 µM [inhibitor, partial curve, poor fit]",–
O=c1c2ccccc2nc(SCc2cn3ccsc3n2)n1-c1ccccc1F,–,inactive: 12%
C/C=C/C1=CC(=O)C[C@H](c2ccc(OC)c(OC)c2)C1,"inconclusive: 25.1 µM [inhibitor, partial curve, poor fit]",–
Cc1ccc(C)c(N2CCN(C(=S)Nc3ccc4nc(N5CCN(C)CC5)cc(C)c4c3)CC2)c1,–,inactive: -25.3%
Cc1cc(C(=O)CSc2nc(N)cc(N)n2)c(C)n1-c1cccc(F)c1,"inconclusive: 89.1 µM [inhibitor, single point]",–

# Ordered by length of the SMILES (rising): part of the list above
SMILES,Potency,"activity change, negative = inhibition"
O=C(CNc1cccc(OC(F)(F)F)c1)N1CCNC1=O,–,inactive: 32.2%
Cc1ccc2c(=O)cc(C(=O)Nc3c(C)cccc3C)oc2c1,"inconclusive: 44.7 µM [inhibitor, partial curve, poor fit]",–
C[C@H](CO)N1C[C@H](C)[C@@H](CN(C)S(=O)(=O)c2cccs2)Oc2c(NC(=O)c3ccncc3)cccc2C1=O,"inconclusive: 50.1 µM [inhibitor, partial curve, poor fit]",–
